Results as given in doi:10.1101/2021.01.07.425795 (bioRxiv, 2021).
No constants are given. Whether binding was seen depends on the method and setting. Some results given as binding are weak or reduced against the parent protein; the word gives no strength. For part of these data: Tags and fused reporters may be left off the sequences shown. Values belong to the binder of their own block, whether it stands above or below them.

Legend:
Loop12-ACAD9 (human) = molecular target: T1, Loop12-ACAD9 (human) (UniProt Q9H845); test: SEC
T1 sequence: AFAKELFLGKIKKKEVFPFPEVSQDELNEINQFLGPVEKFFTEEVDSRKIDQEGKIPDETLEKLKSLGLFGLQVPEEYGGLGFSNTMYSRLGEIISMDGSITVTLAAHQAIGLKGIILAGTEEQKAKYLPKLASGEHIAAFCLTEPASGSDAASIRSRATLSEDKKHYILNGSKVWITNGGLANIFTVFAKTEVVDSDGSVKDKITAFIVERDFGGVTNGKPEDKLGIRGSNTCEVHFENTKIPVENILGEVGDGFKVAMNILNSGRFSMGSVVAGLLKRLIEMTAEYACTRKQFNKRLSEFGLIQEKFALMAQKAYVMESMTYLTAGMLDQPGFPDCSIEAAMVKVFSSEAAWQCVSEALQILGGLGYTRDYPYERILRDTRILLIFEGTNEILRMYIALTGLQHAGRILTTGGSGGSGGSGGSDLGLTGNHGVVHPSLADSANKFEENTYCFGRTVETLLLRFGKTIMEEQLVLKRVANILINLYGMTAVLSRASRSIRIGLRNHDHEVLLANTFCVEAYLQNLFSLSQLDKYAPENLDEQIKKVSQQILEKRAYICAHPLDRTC

[1] = molecular target: His6-SMT3-NDUFAF1 (human) (UniProt Q9Y375); test: SEC
[2] = molecular target: T2, ACAD9-His6 (human), Q9H845; test: pull-down; details: remark: other sources report otherwise
T2 chain: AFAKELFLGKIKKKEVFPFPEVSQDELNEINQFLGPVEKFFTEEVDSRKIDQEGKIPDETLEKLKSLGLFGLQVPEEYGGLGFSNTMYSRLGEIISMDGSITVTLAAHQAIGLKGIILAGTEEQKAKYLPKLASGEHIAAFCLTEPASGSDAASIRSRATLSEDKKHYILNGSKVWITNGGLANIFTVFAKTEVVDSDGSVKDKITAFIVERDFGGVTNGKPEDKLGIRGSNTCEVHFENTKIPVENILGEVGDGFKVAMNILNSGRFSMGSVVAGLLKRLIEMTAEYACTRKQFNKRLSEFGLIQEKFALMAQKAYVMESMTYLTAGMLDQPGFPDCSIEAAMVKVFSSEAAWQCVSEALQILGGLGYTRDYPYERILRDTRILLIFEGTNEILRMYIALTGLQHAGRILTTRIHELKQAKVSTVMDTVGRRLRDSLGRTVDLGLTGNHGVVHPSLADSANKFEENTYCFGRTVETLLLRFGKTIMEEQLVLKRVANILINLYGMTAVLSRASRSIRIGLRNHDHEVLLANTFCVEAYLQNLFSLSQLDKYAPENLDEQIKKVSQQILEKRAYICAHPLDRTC

- binding (Loop12-ACAD9 (human)): binds
B1: His6-ECSIT (natural protein, human, UniProt Q9BQ95 49-431, looked up)
chain: SSEQSLVPSPPEPRQRPTKALVPFEDLFGQAPGGERDKASFLQTVQKFAEHSVRKRGHIDFIYLALRKMREYGVERDLAVYNQLLNIFPKEVFRPRNIIQRIFVHYPRQQECGIAVLEQMENHGVMPNKETEFLLIQIFGRKSYPMLKLVRLKLWFPRFMNVNPFPVPRDLPQDPVELAMFGLRHMEPDLSARVTIYQVPLPKDSTGAADPPQPHIVGIQSPDQQAALARHNPARPVFVEGPFSLWLRNKCVYYHILRADLLPPEEREVEETPEEWNLYYPMQLDLEYVRSGWDNYEFDINEVEEGPVFAMCMAGAHDQATMAKWIQGLQETNPTLAQIPVVFRLAGSTRELQTSSAGLEEPPLPEDHQEEDDNLQRQQQGQS

- binding [1]: no binding
- binding [2]: no binding
B2: His6-SMT3-NDUFAF1 (natural protein, human, UniProt Q9Y375 25-327, looked up)
chain: YPFLGIRFAEYSSSLQKPVASPGKASSQRKTEGDLQGDHQKEVALDITSSEEKPDVSFDKAIRDEAIYHFRLLKDEIVDHWRGPEGHPLHEVLLEQAKVVWQFRGKEDLDKWTVTSDKTIGGRSEVFLKMGKNNQSALLYGTLSSEAPQDGESTRSGYCAMISRIPRGAFERKMSYDWSQFNTLYLRVRGDGRPWMVNIKEDTDFFQRTNQMYSYFMFTRGGPYWQEVKIPFSKFFFSNRGRIRDVQHELPLDKISSIGFTLADKVDGPFFLEIDFIGVFTDPAHTEEFAYENSPELNPRLFK
